Reference: publication PMC3391290
No constants are given. Whether binding was seen depends on the method and setting. Some entries that bind do so weakly or less than the wild type.

Amino acid sequences for entries named in this document (tags omitted). A change or cut given only in a name is not applied to a line headed by its entry. Residues count along the entry.
UniProt P22888, residues 27-699: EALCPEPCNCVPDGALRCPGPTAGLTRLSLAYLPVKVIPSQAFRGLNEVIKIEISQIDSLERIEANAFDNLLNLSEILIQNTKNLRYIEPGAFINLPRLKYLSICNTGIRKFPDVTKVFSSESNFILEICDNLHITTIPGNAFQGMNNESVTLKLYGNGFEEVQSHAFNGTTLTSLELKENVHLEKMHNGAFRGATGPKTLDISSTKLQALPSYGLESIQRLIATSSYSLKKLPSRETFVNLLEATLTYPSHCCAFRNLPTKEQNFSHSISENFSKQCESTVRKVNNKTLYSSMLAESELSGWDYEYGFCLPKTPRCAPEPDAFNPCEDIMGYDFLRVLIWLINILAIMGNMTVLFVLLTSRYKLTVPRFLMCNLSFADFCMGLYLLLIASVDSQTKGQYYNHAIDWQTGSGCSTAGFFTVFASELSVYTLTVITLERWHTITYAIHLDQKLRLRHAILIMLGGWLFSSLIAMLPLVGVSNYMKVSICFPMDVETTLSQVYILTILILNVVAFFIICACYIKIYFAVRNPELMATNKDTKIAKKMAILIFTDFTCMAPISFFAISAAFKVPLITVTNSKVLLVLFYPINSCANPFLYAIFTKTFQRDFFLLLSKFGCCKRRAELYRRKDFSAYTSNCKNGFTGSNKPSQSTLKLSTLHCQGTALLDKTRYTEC
UniProt P01215: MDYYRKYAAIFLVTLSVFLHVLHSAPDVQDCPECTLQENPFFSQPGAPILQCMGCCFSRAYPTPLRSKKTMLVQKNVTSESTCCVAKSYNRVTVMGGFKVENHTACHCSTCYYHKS

Target: human LH receptor (hLHR) (human) (UniProt P22888)
Experiment: radioligand binding; 125I-hCG or 125I-hTSH incubated with increasing dilutions of MAb 2A6 for 1 h at room temperature, then membrane preparation of HEK293-LHR or HEK293-TSHR for 1 h; bound label pelleted and counted; only the binder purified

human chorionic gonadotropin (hCG) (from UniProt P01215 25-116; P0DN86 21-165) (ligand)
binding: binds
